The assay addresses DOC domain of HERC2 (HERC2DOC, aa 2759–2914) (human) (UniProt O95714). As to the kind of experiment: NMR titration; 1H,15N HSQC of 0.1–0.2 mM 15N-labelled HERC2 protein titrated with unlabeled protein or peptide; 298 K; 20 mM Tris (pH 6.8) or 20 mM PBS (pH 6.5), 150 mM NaCl, 2 mM DTT, 10% D2O; both purified.

Chains of the proteins cited; added tags and fusions are not shown. Lines headed by an entry give the natural chain unless they say otherwise; changes in a name come on top. A line that says so, or that is headed by a name, gives the form on record, which may keep a tag or linker. Residues count along the entry.
DOC domain of HERC2 (HERC2DOC, aa 2759–2914) (O95714, residues 2759-2914): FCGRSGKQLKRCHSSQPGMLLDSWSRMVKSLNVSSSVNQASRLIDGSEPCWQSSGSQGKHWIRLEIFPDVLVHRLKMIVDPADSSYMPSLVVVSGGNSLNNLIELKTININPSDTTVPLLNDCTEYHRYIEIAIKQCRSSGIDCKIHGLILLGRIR
ZZ domain of HERC2 (HERC2ZZ, aa 2702–2755 with additional tryptophan at the C-terminus) (O95714, form named): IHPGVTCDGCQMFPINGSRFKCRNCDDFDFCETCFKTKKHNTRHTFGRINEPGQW

Among the data in paper PMC9001736 are binding values, retold here.

These are yes or no findings as the source states them, for the method shown.

Consider “ZZ domain of HERC2 (HERC2ZZ, aa 2702–2755 with additional tryptophan at the C-terminus) (from UniProt O95714 2702-2755) (domain or fragment)”, for which the binding entry is “no binding”.
